Measured data: PubChem BioAssay AID1259314 (Drosophila RNAi Screening Center, 2017)

Purpose: 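Genes whose knock-down alters cell survival under toxic manganese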 (primary screen)
Cells: Drosophila S2R+ cells
Reagents: long dsRNA against Drosophila genes
Time to read-out: 5 days (4 days knock-down, then 1 day metal exposure)
Treatment: manganese chloride added to 15 mM for 24 hours
Measurement: 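Cellular ATP measured by luciferase light, scaled to the plate mean, averaged across replicates and z-scored over plates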
Scale: mean ATP z-score: higher = more ATP than the plate average, more viable cells under manganese
Call rule: 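a mean ATP z-score past 1.5 in either direction is called active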
Calls: active = strong ATP change, up or down; inactive = no strong ATP change
The whole screen tested about 3,100 reagents; below is a random part of them. Over the whole deposit, 289 (9.3%) were called active. 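Active includes both higher and lower ATP than plate average; check the z-score sign for direction.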 Unmarked entries are inactive. The numbers tell different reagents against one gene apart. A plus sign joins genes that one reagent is predicted to hit. Reagent sequences are not shown. The record does not give: the amount of reagent.

| gene | dsRNA no. | mean ATP z-score |
| --- | --- | --- |
| CG11566 (retired record) + stg1 | 1 | 0.555 |
| CG11566 (retired record) + stg1 | 2 | 0.994 |
| Gr58b | 1 | -0.432 |
| Gr58b | 2 | 0.164 |
| Tehao | 1 | -0.0502 |
| Tehao | 2 | 0.133 |
| sing | 1 | 0.159 |
| sing | 2 | -0.615 |
| Sr-CIII | 1 | -1.95 (active) |
| mol | 1 | -0.959 |
| mol | 2 | -0.206 |
| BI-1 | 1 | -0.153 |
| BI-1 | 2 | 0.388 |
| Cals | 1 | -0.15 |
| Cals | 2 | -0.146 |
| CG12746 | 1 | 0.501 |
| CG12746 | 2 | 0.173 |
| CG6659 | 1 | -0.335 |
| CG6659 | 2 | -1.62 (active) |
| Ir7d | 1 | 0.43 |
| CG1806 | 1 | 0.198 |
| CG14420 | 1 | 0.0579 |
| CG14420 | 2 | -0.486 |
| Recs1 | 1 | -0.143 |
| Recs1 | 2 | 0.524 |
| ZnT77C | 1 | -1.11 |
| ZnT77C | 2 | 0.35 |
| Cln3 | 1 | -0.762 |
| Cln3 | 2 | 0.713 |
| CG3078 | 1 | 0.552 |
| CG3078 | 2 | -0.925 |
| Abcd1 | 1 | 0.287 |
| Abcd1 | 2 | 1.6 (active) |
| OstDelta | 1 | 0.0658 |
| OstDelta | 2 | -1.46 |
| CG6763 | 1 | -1.04 |
| CG6763 | 2 | 0.167 |
| aph-1 | 1 | 0.262 |
| aph-1 | 2 | -0.461 |
| Nup54 | 1 | -0.86 |
| Tsp86D | 1 | 3.14 (active) |
| Ir60d | 1 | -0.00356 |
| VhaAC45RP | 1 | -0.527 |
| VhaAC45RP | 2 | -0.323 |
| por | 1 | 0.314 |
| por | 2 | 0.319 |

Targets above whose target name starts with B or b:
| gene | dsRNA no. | mean ATP z-score |
| --- | --- | --- |
| BI-1 | 1 | -0.153 |
| BI-1 | 2 | 0.388 |
